Laboratory results taken from patent US20040202659A1.
Results are given in words; binding and its absence hold for the method and conditions named. Some results given as binding are weak or reduced against the parent protein; the word gives no strength. Blank lines part the entries; values can stand above or below the binder they belong to.

Legend:
Test in all cases: specificity assay
PDG8 = biological target: PDG8
PDG16 = biological target: PDG16
PDG7 = biological target: PDG7
PDG-A = biological target: PDG-A
PDG10 = biological target: PDG10

binding (PDG8): binds
binding (PDG16): binds
binding (PDG7): binds
binding (PDG-A): binds
binding (PDG10): binds
B1: AI-X16 (Fab, V domains shown)
VH: QVKLLESGGGLVHPGGSLRLSCAASGFTFDNFAMSWVRQAPGKGLEWVSGISGGGLLTHYADSVKGRFTISRNNSRNTVYLQMNSLRAEDTAVYYCVRDLGYRVLSTFTFDIWGQGTKVTVSS
VL: VVTQPASVSGSPGQSITISCTGTSSAIGNYNFVPWYQQHPGKAPKLMIYEGSKRPSGVSNRFSGSKSGNTASLTISGLQAEDEAEYYCCSYVHSSTNWVFGGGTKLTVLG

binding (PDG8): binds
binding (PDG16): binds
binding (PDG7): binds
binding (PDG-A): binds
binding (PDG10): binds
B2: AI-X24 (Fab, V domains shown)
VH: B1 VH
VL: B1 VL
